Taken from: PubChem BioAssay AID493246 (Drosophila RNAi Screening Center, 2011)
The screen tested about 21,000 reagents; this is an unselected part of those with a known target gene and a result. Of all reagents, 429 (2%) were called active. 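Values are raw and not normalised between plates; calls rest on per-plate z-scores that were not deposited.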 A number with no mark means an inactive call. A plus sign joins genes that one reagent is predicted to hit. Reagent sequences are not shown. The record does not give: the amount of reagent, the time to read-out.

Test: 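Genome-wide search for dsRNAs that reduce cell number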 (primary screen)
Cells: Drosophila Kc and S2R+ cells
Reagents: long dsRNA against Drosophila genes
Detection: 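Cell number per well after knock-down, printed as raw plate values; calls were based on per-plate z-scores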
Scale: Kc cell number and S2R+ cell number: higher = more cells remaining
Hit rule: 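Active when the per-plate z-score of cell number is 3 or more in the direction of fewer cells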

target | PubChem SID | Kc cell number, rep 1 | Kc cell number, rep 2 | S2R+ cell number, rep 1 | S2R+ cell number, rep 2
CG4360 | SID104195358 | 1.55e6 | 1.65e6 | 1.00e6 | 1.06e6
CG31199 | SID104195076 | 1.49e6 | 1.58e6 | 1.15e6 | 1.26e6
tHMG2 | SID104195974 | 1.31e6 | 1.23e6 | 9.61e5 | 1.19e6
ChT | SID104196088 | 1.53e6 | 1.61e6 | 1.03e6 | 1.11e6
Shab | SID104187805 | 1.47e6 | 1.54e6 | 1.11e6 | 1.19e6
Shab | SID104188435 | 1.55e6 | 1.46e6 | 9.48e5 | 1.17e6
Shab | SID104188491 | 1.27e6 | 1.44e6 | 8.69e5 | 9.34e5
hgo | SID104183336 | 1.88e6 | 1.85e6 | 1.20e6 | 1.36e6
unc-4 | SID104200173 | 1.46e6 | 1.41e6 | 9.36e5 | 1.11e6
U4-U6-60K | SID104190416 | 1.40e6 | 1.46e6 | 1.10e6 | 1.15e6
PNUTS | SID104180430 | 1.23e6 | 1.21e6 | 7.54e5 | 8.85e5
hebe | SID104184984 | 1.56e6 | 1.64e6 | 1.01e6 | 1.14e6
hebe | SID104186397 | 1.52e6 | 1.50e6 | 1.07e6 | 1.20e6
ash2 | SID104196694 | 1.54e6 | 1.56e6 | 1.14e6 | 1.20e6
CG14965 | SID104188216 | 1.35e6 | 1.50e6 | 1.14e6 | 1.11e6
Uba5 | SID104199567 | 1.54e6 | 1.52e6 | 1.01e6 | 1.10e6
Msp300 | SID104180646 | 1.49e6 | 1.54e6 | 1.11e6 | 1.24e6
Msp300 | SID104180648 | 1.62e6 | 1.72e6 | 1.16e6 | 1.28e6
Msp300 | SID104180649 | 1.57e6 | 1.63e6 | 1.11e6 | 1.27e6
Msp300 | SID104180650 | 1.55e6 | 1.59e6 | 1.12e6 | 1.28e6
Msp300 | SID104182152 | 1.73e6 | 1.50e6 | 1.16e6 | 1.33e6
Msp300 | SID104183161 | 1.17e6 | 1.22e6 | 6.01e5 | 6.75e5
Msp300 | SID104183162 | 1.65e6 | 1.54e6 | 1.16e6 | 1.39e6
CG3257 | SID104184143 | 1.42e6 | 1.50e6 | 1.14e6 | 1.14e6
CG17782 | SID104195059 | 1.51e6 | 1.52e6 | 1.00e6 | 1.05e6
Grl62a | SID104187755 | 1.47e6 | 1.41e6 | 9.54e5 | 1.14e6
l(2)37Cb | SID104181887 | 1.41e6 | 1.57e6 | 1.33e6 | 1.30e6
Efhc1.1 | SID104199927 | 1.39e6 | 1.40e6 | 1.06e6 | 1.13e6
Afti | SID104196232 | 1.50e6 | 1.56e6 | 1.34e6 | 1.22e6
PHDP | SID104184427 | 1.65e6 | 1.74e6 | 1.38e6 | 1.47e6
Setx | SID104190651 | 1.79e6 | 1.86e6 | 1.16e6 | 1.19e6
melt | SID104191159 | 1.57e6 | 1.45e6 | 1.12e6 | 1.25e6
mRpL33 | SID104198111 | 1.46e6 | 1.43e6 | 9.29e5 | 1.05e6
klhl10 | SID104185066 | 1.49e6 | 1.50e6 | 1.07e6 | 1.19e6
klhl10 | SID104198963 | 1.41e6 | 1.69e6 | 1.19e6 | 1.27e6
klhl10 | SID104200542 | 1.44e6 | 1.48e6 | 1.10e6 | 1.20e6
klhl10 | SID104200717 | 1.60e6 | 1.66e6 | 1.17e6 | 1.29e6
CG1309 | SID104188094 | 1.36e6 | 1.45e6 | 1.23e6 | 1.24e6
CG12206 | SID104197620 | 1.53e6 | 1.58e6 | 1.09e6 | 1.21e6
DCTN3-p24 | SID104184384 | 1.31e6 | 1.39e6 | 1.12e6 | 1.14e6
CG9263 | SID104182968 | 1.53e6 | 1.60e6 | 1.26e6 | 1.37e6
CG9692 | SID104190883 | 1.22e6 | 1.36e6 | 1.31e6 | 1.35e6
Gp150 | SID104184410 | 1.50e6 | 1.84e6 | 1.36e6 | 4.29e5
nudC | SID104190888 | 1.41e6 | 1.51e6 | 1.27e6 | 1.35e6
nudC | SID104190889 | 1.35e6 | 1.46e6 | 1.30e6 | 1.39e6
nvy | SID104184497 | 1.58e6 | 1.64e6 | 1.06e6 | 1.17e6
mRpS16 | SID104186944 | 1.64e6 | 1.63e6 | 1.21e6 | 1.37e6
cert | SID104189466 | 1.32e6 | 1.40e6 | 1.22e6 | 1.12e6
Prosbeta4R1 | SID104180294 | 1.58e6 | 1.52e6 | 1.11e6 | 1.29e6
CG9503 | SID104199978 | 1.68e6 | 1.71e6 | 1.17e6 | 1.27e6
CG3652 | SID104180416 | 1.67e6 | 1.61e6 | 1.12e6 | 1.23e6
CG17159 + CG17162 | SID104200691 | 1.57e6 | 1.61e6 | 1.11e6 | 1.20e6
CG17159 + CG17162 | SID104200692 | 1.56e6 | 1.58e6 | 1.13e6 | 1.29e6
FAM21 | SID104186415 | 1.39e6 | 1.41e6 | 1.14e6 | 1.20e6
CG17362 | SID104190059 | 1.67e6 | 1.63e6 | 1.20e6 | 1.39e6
Ptp52F | SID104186509 | 1.45e6 | 1.55e6 | 1.18e6 | 1.27e6
CG10311 | SID104194020 | 1.22e6 | 1.26e6 | 1.12e6 | 1.29e6
mthl15 | SID104180912 | 1.44e6 | 1.52e6 | 9.74e5 | 1.05e6
alpha-Est3 | SID104192407 | 1.66e6 | 1.67e6 | 1.21e6 | 1.30e6
